According to paper PMC12677621:
The exact form of at least one protein or probe is not confirmed. Where cells or extracts were used, other partners may take part.

By UniProt entry, the sequences of proteins in these tests, tags left out. Residues count along the entry.
UniProt P16422, 24-314: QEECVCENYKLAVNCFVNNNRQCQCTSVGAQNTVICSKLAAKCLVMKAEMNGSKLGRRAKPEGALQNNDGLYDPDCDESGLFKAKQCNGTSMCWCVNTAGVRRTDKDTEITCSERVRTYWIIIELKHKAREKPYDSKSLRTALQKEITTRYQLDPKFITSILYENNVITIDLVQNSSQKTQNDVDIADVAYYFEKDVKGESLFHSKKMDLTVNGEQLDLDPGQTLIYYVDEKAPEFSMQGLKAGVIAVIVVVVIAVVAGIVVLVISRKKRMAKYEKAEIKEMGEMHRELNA

Biological target: EpCAM (cell membrane + SKBR3 and HepG2 cells) (human) (UniProt P16422)
Assay: cell capture by aptamer-bearing DNA array, CLSM with EpCAM/CD45 immunostaining
Conditions: MMDA hunter, tumor cells, avidity and whole-cell binding, no Kd; Capture at 37 C for 60 min with 100 ug/mL MMDA hunter and 5000 cells; protein on the cell surface; folded or branched DNA

“AGGCACCATCGTAGGTTTCTTGCCAGGCACCATCGTAGGTTTCTTGCCAGGCACCATCGTAGGTTTCTTGCCAGTATGCGTTCACTACAGAGGTTGCGTCTGTCCCACGTTGTCATGGGGGGTTGGCCTG”: binds.
